Hit rate of the full screen: of about 340,000 compounds, about 6,200 (1.8%) were called active. Inconclusive means that the source gave no clear call. Such entries were picked first, then a sample of the others. The call rests on the fitted dose curve; in most records, active means well fitted activation curve with a large enough effect; inconclusive means small, poorly fitted or top-dose-only effect; inactive means no such curve, though single readings can be large or run the other way. A potency beside an inconclusive call is a rough fit, not a confirmed value.
Assay: A quantitative high throughput screen for small molecules that induce DNA re-replication in SW480 colon adenocarcinoma cells. Further: nearly all actives have a fitted effect of over 55% in size. On re-replication activation: % of control where 0% means no effect.
Settings: Hoechst DNA content imaging, 48 h; re-replication activation: at 46.1 µM (top of the series)
In short: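 Image-based DNA-content assay: after two days of treatment, nuclei were labelled with the DNA dye Hoechst and imaged, and hits were compounds raising the count of nuclei showing high fluorescence intensity.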
Potency means the concentration at half of the fitted maximal effect.

Row | Compound | re-replication activation | Potency
1 | O=C(NC1CCCc2ccccc21)c1ccccc1OC(F)F (stereo not drawn) | inactive: -2.9% | 
2 | COc1ccc(OC)c(NC(=O)c2cc3c(Cl)nc4ccccc4c3s2)c1 |  | inconclusive: 15.8 µM [activator, single point]
3 | CCCCCCc1cc2cc(-c3nnc(-c4ccccc4OC)o3)c(=O)oc2cc1O |  | active: 1.16 µM
4 | COc1ccc2[nH]c(=O)c(CN(Cc3nnnn3Cc3ccccc3)CC3CCCO3)cc2c1 (stereo not drawn) |  | inconclusive: 6.51 µM [activator, single point]
5 | COC(=O)Cc1ccc(NC(=S)Nc2cccc(C)n2)cc1 | inactive: -8.21% | 
6 | C/C(=N\NC(=O)C(C)n1nc(C)c([N+](=O)[O-])c1C)c1ccccc1O (stereo not drawn) |  | active: 4.61 µM
7 | CC(C)(C)[C@@H]1COC(=O)[C@@H](Cc2ccc(F)cc2)C/C=C\C[C@H](CC(=O)N(CCO)Cc2ccccc2)C(=O)N1 |  | inconclusive: 0.461 µM [activator, partial curve, poor fit]
8 | CCOc1cc2c3c(c1)C1(Nc4ccccc4S1)C(=O)N3C(C)(C)CC2C (stereo not drawn) |  | inconclusive: 18.4 µM [activator, single point]
9 | Cc1ccc2oc(C(=O)NCC3CCOCC3)c(C)c2c1 | inactive: -22.7% | 
10 | O=C(/C=C\c1ccco1)Nc1ccc(N2CCN(C(=O)c3ccccc3)CC2)cc1 | inactive: 6.56% | 
11 | CCCCCCOc1ccc(C(=O)n2cnc(N)n2)cc1 | inactive: -3.65% | 
12 | Fc1ccc(-c2nnn3c2nc(NCc2ccccc2)c2ccccc23)cc1 |  | inconclusive: 29.1 µM [activator, single point]
13 | Cc1ccccc1N(CC(=O)Nc1ccccc1C(=O)O)S(C)(=O)=O | inactive: -3.42% | 
14 | N#Cc1cc2c(ccc3ccccc32)oc1=O |  | inconclusive: 23.1 µM [activator, partial curve, poor fit]
15 | Cn1c(SCC(=O)N2CCN(c3ccccc3)CC2)nnc1-c1ccncc1 | inactive: -2.85% | 
16 | CC1(C)C(=O)OC(c2c(F)c(F)c(F)c(F)c2F)C2(CCCCC2)C1=O (stereo not drawn) | inactive: -1.62% | 
17 | COc1ccc(-c2cc(C(=O)N(C)Cc3cccc(OC)c3OC)c3ccccc3n2)cc1OC | inactive: -1.45% | 
18 | Cc1ccc(C(=O)Nc2cccc(C(F)(F)F)c2)cc1NC(=O)c1csc(-c2ccncc2)n1 | inactive: 3.47% | 
19 | O=C(CNC(=O)C12CC3CC(CC(C3)C1)C2)OCC(=O)N1CCCCC1 |  | inconclusive: 0.082 µM [activator, full curve, poor fit]
20 | O=C(Cn1cncn1)NCc1cccc(C(F)(F)F)c1 | inactive: -28% | 
21 | COc1ccc(S(=O)(=O)N(C)C)cc1NC(=O)c1ccc2c(c1)OCCO2 |  | inconclusive: 5.8 µM [activator, single point]
22 | COc1cc(Cl)cc(CN2CCC(CCC(=O)NC3CC3)CC2)c1OC |  | inconclusive: 0.0046 µM [activator, full curve, poor fit]
23 | CC(Oc1ccc(Br)cc1)C(=O)Nc1ccc(S(=O)(=O)NC2=NCCCCC2)cc1 (stereo not drawn) | inactive: -1.74% | 
24 | Cc1c(S(=O)(=O)N2CCC(C)CC2)c(=O)n(C)c(=O)n1C | inactive: -79.2% | 

Two entries picked at random from those above, as already listed:
Row | Compound | re-replication activation | Potency
13 | Cc1ccccc1N(CC(=O)Nc1ccccc1C(=O)O)S(C)(=O)=O | inactive: -3.42% | 
11 | CCCCCCOc1ccc(C(=O)n2cnc(N)n2)cc1 | inactive: -3.65% | 

Continuation.

Row | Compound | re-replication activation | Potency
25 | CCCn1c(-c2ccc(OC)cc2)nc2ccccc21 | inactive: 26.9% | 
26 | COc1cccc(N/C=C/C(=O)c2ccc(Cl)cc2)c1 | inactive: 15.1% | 
27 | COCCn1c(C)nc2oc3ccc(Br)cc3c(=O)c2c1=O | inactive: 2.5% | 
28 | O=C1N/C(=C/c2ccc(Br)s2)C(=O)N1c1ccccc1 |  | inconclusive: 18.4 µM [activator, partial curve, poor fit]
29 | Cc1ccc(-c2noc(N=O)c2NO)cc1 |  | inconclusive: 14.6 µM [activator, partial curve, poor fit]
30 | CC(C)C[C@H](NC(=O)OC(C)(C)C)c1nnc(SCC(=O)Nc2ccc(Br)cc2)o1 |  | inconclusive: 32.6 µM [activator, partial curve, poor fit]
31 | O=C(/C=C/c1ccc(Cl)cc1Cl)n1cccn1 |  | inconclusive: 31.6 µM [activator, single point]
32 | CCCN(CCC)S(=O)(=O)c1cc2c3c(c1)CCN3C(=O)CC2 |  | inconclusive: 29.1 µM [activator, single point]
33 | COc1ccc2[nH]c3c(c2c1)CCN1C(=O)C(CC(=O)NCc2cccc(C(F)(F)F)c2)C[C@H](C(=O)N2CCOCC2)[C@@]31C (stereo partly drawn) |  | inconclusive: 0.82 µM [activator, full curve, poor fit]
34 | Cc1ccc(OCCNC(=O)c2ccc(C)o2)cc1 |  | inconclusive: 29.1 µM [activator, single point]
35 | CCCCN(CCCC)C(=S)N/N=C/c1c(C)[nH]n(-c2ccccc2)c1=O |  | inconclusive: 18.4 µM [activator, single point]
36 | CC(C)=CC(=O)N1CCC(N2CCC(C(=O)N3CCOCC3)CC2)CC1 |  | inconclusive: 2.59 µM [activator, full curve, poor fit]
37 | COc1ccc(C(CNC(=O)C(CCSC)NC(=O)c2ccccc2Cl)N2CCCCC2)cc1 (stereo not drawn) | inactive: -0.402% | 
38 | CS(=O)(=O)NCC(c1cccnc1)N1CCN(c2ccc(F)cc2)CC1 (stereo not drawn) |  | inconclusive: 13 µM [activator, single point]
39 | CCCOc1cc(C)c(S(=O)(=O)NCCOC)cc1C | inactive: 0.939% | 
40 | CCCCCNCc1ccc(Br)cc1 |  | inconclusive: 23.1 µM [activator, single point]
41 | Cc1cc2ccccn2c1C(=O)c1ccc([N+](=O)[O-])o1 |  | active: 20.6 µM
42 | Cc1cc(Cl)c(S(=O)(=O)N2CCCCCC2)cc1OCC(N)=O | inactive: -1.87% | 
43 | COc1cccc(-c2nc(C(N)=O)c3[nH]c(=O)n(-c4cccc(Cl)c4)c3n2)c1OC | inactive: 1.55% | 
44 | O=C(/C=C/c1ccc(O)c(O)c1)OCCc1ccccc1 | inactive: 13% | 
45 | O=S(=O)(c1ccc(F)c(F)c1)N1CCN(CCc2ccccc2)CC1 |  | inconclusive: 0.461 µM [activator, partial curve, poor fit]
46 | Cn1c2ccccc2c(=O)c2cc(C#Cc3ccc(N)cc3)ccc21 |  | inconclusive: 20.6 µM [activator, single point]
47 | Cc1cc(C(=O)CCl)c(C)n1-c1cccc([N+](=O)[O-])c1 |  | inconclusive: 0.0041 µM [activator, full curve, poor fit]
48 | Cc1ccc(NC(=O)CSc2nc(=O)n(CCCN3CCOCC3)c3c2CCCC3)cc1 |  | inconclusive: 6.51 µM [activator, single point]

Molecules listed so far containing fluorine:
Row | Compound | re-replication activation | Potency
1 | O=C(NC1CCCc2ccccc21)c1ccccc1OC(F)F (stereo not drawn) | inactive: -2.9% | 
7 | CC(C)(C)[C@@H]1COC(=O)[C@@H](Cc2ccc(F)cc2)C/C=C\C[C@H](CC(=O)N(CCO)Cc2ccccc2)C(=O)N1 |  | inconclusive: 0.461 µM [activator, partial curve, poor fit]
12 | Fc1ccc(-c2nnn3c2nc(NCc2ccccc2)c2ccccc23)cc1 |  | inconclusive: 29.1 µM [activator, single point]
16 | CC1(C)C(=O)OC(c2c(F)c(F)c(F)c(F)c2F)C2(CCCCC2)C1=O (stereo not drawn) | inactive: -1.62% | 
18 | Cc1ccc(C(=O)Nc2cccc(C(F)(F)F)c2)cc1NC(=O)c1csc(-c2ccncc2)n1 | inactive: 3.47% | 
20 | O=C(Cn1cncn1)NCc1cccc(C(F)(F)F)c1 | inactive: -28% | 
33 | COc1ccc2[nH]c3c(c2c1)CCN1C(=O)C(CC(=O)NCc2cccc(C(F)(F)F)c2)C[C@H](C(=O)N2CCOCC2)[C@@]31C (stereo partly drawn) |  | inconclusive: 0.82 µM [activator, full curve, poor fit]
38 | CS(=O)(=O)NCC(c1cccnc1)N1CCN(c2ccc(F)cc2)CC1 (stereo not drawn) |  | inconclusive: 13 µM [activator, single point]
45 | O=S(=O)(c1ccc(F)c(F)c1)N1CCN(CCc2ccccc2)CC1 |  | inconclusive: 0.461 µM [activator, partial curve, poor fit]
